{"source": "the supplement of paper PMC8728848", "assay_in_all_cases": "glycan array binding signal (z-score within array); higher = stronger binding", "conditions_in_all_cases": "glycan notation: IUPAC condensed, linker removed", "key": {"[1]": {"molecular_target": "Gal(b1-4)GlcNAc(b1-6)GalNAc", "summary_of_the_method": "(§1)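 Glycan array binding is given as a within-array Z-score, which can be read as non-binding when negative. The arrays, 3228 of them, came from the Consortium for Functional Glycomics database and were retained only where the protein sequence was available. Z-scores were averaged across arrays of the same protein sequence at different concentrations or buffers and across linkers.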"}, "[2]": {"molecular_target": "Gal(b1-4)GlcNAc(b1-6)[Gal(b1-3)]GalNAc", "summary_of_the_method": "as §1"}, "[3]": {"molecular_target": "Gal(b1-4)GlcNAc(b1-6)[Gal(b1-4)GlcNAc(b1-3)]GalNAc", "summary_of_the_method": "as §1"}, "Gal(b1-4)GlcNAc6P": {"molecular_target": "Gal(b1-4)GlcNAc6P", "summary_of_the_method": "as §1"}, "Gal(b1-6)Gal": {"molecular_target": "Gal(b1-6)Gal", "summary_of_the_method": "as §1"}, "Gal3S(b1-3)GalNAc": {"molecular_target": "Gal3S(b1-3)GalNAc", "summary_of_the_method": "as §1"}, "Gal3S(b1-3)GlcNAc": {"molecular_target": "Gal3S(b1-3)GlcNAc", "summary_of_the_method": "as §1"}, "[4]": {"molecular_target": "Gal3S(b1-3)[Fuc(a1-4)]GlcNAc", "summary_of_the_method": "as §1"}, "Gal3S(b1-4)Glc": {"molecular_target": "Gal3S(b1-4)Glc", "summary_of_the_method": "as §1"}, "Gal3S(b1-4)Glc6S": {"molecular_target": "Gal3S(b1-4)Glc6S", "summary_of_the_method": "as §1"}, "Gal3S(b1-4)GlcNAc": {"molecular_target": "Gal3S(b1-4)GlcNAc", "summary_of_the_method": "as §1"}, "[5]": {"molecular_target": "Gal3S(b1-4)[Fuc(a1-3)]Glc6S", "summary_of_the_method": "as §1"}, "[6]": {"molecular_target": "Gal3S(b1-4)[Fuc(a1-3)]GlcNAc", "summary_of_the_method": "as §1"}, "[7]": {"molecular_target": "Gal3S(b1-4)[Fuc(a1-3)]GlcNAc6S", "summary_of_the_method": "as §1"}, "Gal3S4S(b1-4)GlcNAc": {"molecular_target": "Gal3S4S(b1-4)GlcNAc", "summary_of_the_method": "as §1"}, "Gal3S6S(b1-4)GlcNAc": {"molecular_target": "Gal3S6S(b1-4)GlcNAc", "summary_of_the_method": "as §1"}, "Gal3S6S(b1-4)GlcNAc6S": {"molecular_target": "Gal3S6S(b1-4)GlcNAc6S", "summary_of_the_method": "as §1"}, "Gal4S(b1-4)GlcNAc": {"molecular_target": "Gal4S(b1-4)GlcNAc", "summary_of_the_method": "as §1"}, "Gal4S6S(b1-4)GlcNAc": {"molecular_target": "Gal4S6S(b1-4)GlcNAc", "summary_of_the_method": "as §1"}, "Gal6P(b1-4)GlcNAc": {"molecular_target": "Gal6P(b1-4)GlcNAc", "summary_of_the_method": "as §1"}, "Gal6S(b1-3)GlcNAc": {"molecular_target": "Gal6S(b1-3)GlcNAc", "summary_of_the_method": "as §1"}, "Gal6S(b1-3)GlcNAc6S": {"molecular_target": "Gal6S(b1-3)GlcNAc6S", "summary_of_the_method": "as §1"}, "Gal6S(b1-4)Glc": {"molecular_target": "Gal6S(b1-4)Glc", "summary_of_the_method": "as §1"}, "Gal6S(b1-4)Glc6S": {"molecular_target": "Gal6S(b1-4)Glc6S", "summary_of_the_method": "as §1"}, "Gal6S(b1-4)GlcNAc": {"molecular_target": "Gal6S(b1-4)GlcNAc", "summary_of_the_method": "as §1"}, "Gal6S(b1-4)GlcNAc6S": {"molecular_target": "Gal6S(b1-4)GlcNAc6S", "summary_of_the_method": "as §1"}, "GalNAc(a1-3)Gal": {"molecular_target": "GalNAc(a1-3)Gal", "summary_of_the_method": "as §1"}, "GalNAc(a1-3)GalNAc": {"molecular_target": "GalNAc(a1-3)GalNAc", "summary_of_the_method": "as §1"}, "[8]": {"molecular_target": "GalNAc(a1-3)GalNAc(b1-3)Gal(a1-4)Gal(b1-4)Glc", "summary_of_the_method": "as §1"}, "[9]": {"molecular_target": "GalNAc(a1-3)GalNAc(b1-3)Gal(a1-4)Gal(b1-4)GlcNAc", "summary_of_the_method": "as §1"}, "GalNAc(b1-3)Gal": {"molecular_target": "GalNAc(b1-3)Gal", "summary_of_the_method": "as §1"}, "[10]": {"molecular_target": "GalNAc(b1-3)Gal(a1-4)Gal(b1-4)GlcNAc", "summary_of_the_method": "as §1"}, "[11]": {"molecular_target": "GalNAc(b1-3)Gal(a1-4)Gal(b1-4)GlcNAc(b1-3)Gal(b1-4)Glc", "summary_of_the_method": "as §1"}, "[12]": {"molecular_target": "GalNAc(b1-3)Gal(a1-6)Gal(b1-4)Glc", "summary_of_the_method": "as §1"}, "GalNAc(b1-3)GalNAc": {"molecular_target": "GalNAc(b1-3)GalNAc", "summary_of_the_method": "as §1"}, "GalNAc(b1-3)GlcNAc": {"molecular_target": "GalNAc(b1-3)GlcNAc", "summary_of_the_method": "as §1"}, "GalNAc(b1-4)Gal(b1-4)Glc": {"molecular_target": "GalNAc(b1-4)Gal(b1-4)Glc", "summary_of_the_method": "as §1"}, "GalNAc(b1-4)GlcNAc": {"molecular_target": "GalNAc(b1-4)GlcNAc", "summary_of_the_method": "as §1"}}, "note": "Some of the results follow."}
{"binder": "PX9937I-bfa-538-26-538 (Bacteroides fragilis) (protein) DKLDLSPIDYYGSGSYWKTEAQATAYIDGIHKHLRDAAWQHTITFGELRGGRFITGASSDGMGVSNGDIILQNFDETHTGVSKFGDLFGRITNLNLFIARVTDATYLSDEMKNFYLGEVYGLRAFYYFDLYRIYGGVPLRLTADVVEGVIDPNKLYMARSTPKEVMTQIKSDLNKSMEYFGNMNDFDPYKRGKKVYWSKAATECLMGEVYLWTSKVTTGDDVANPADLTIAKTHLESVLNNYNLKMLDDFSQVFNAKNKANDEIIFAIRFLEGEATNSNGTFTYNVGTGSTKNRYQANGEVFGDALDIQNTGNQTYEYNKAVYQNFDDADTRKEATFIASYNKDGKTGELSLYGTHVRKNIGYVNAQGARVYCGDYIFYRLPWVYLTLAEIANMEGDNAAVAKYINLVRKRAYGNAWDETLYAYPETADFTTNELAILHEKDKEFIQEGQRWWDLRRMTLTKGGTPLVFCKEGSLLGDAPILNKSTEAHKLLWPIEKTMLNKDPALEQTPGYK", "values": [{"measurement": "glycan array binding signal (z-score)", "setting": "[1]", "result": 1.25}, {"measurement": "glycan array binding signal (z-score)", "setting": "[2]", "result": -0.735}, {"measurement": "glycan array binding signal (z-score)", "setting": "[3]", "result": -0.941}, {"measurement": "glycan array binding signal (z-score)", "setting": "Gal(b1-4)GlcNAc6P", "result": 1.44}, {"measurement": "glycan array binding signal (z-score)", "setting": "Gal(b1-6)Gal", "result": 0.21}, {"measurement": "glycan array binding signal (z-score)", "setting": "Gal3S(b1-3)GalNAc", "result": -0.819}, {"measurement": "glycan array binding signal (z-score)", "setting": "Gal3S(b1-3)GlcNAc", "result": 0.712}, {"measurement": "glycan array binding signal (z-score)", "setting": "[4]", "result": 0.163}, {"measurement": "glycan array binding signal (z-score)", "setting": "Gal3S(b1-4)Glc", "result": -0.549}, {"measurement": "glycan array binding signal (z-score)", "setting": "Gal3S(b1-4)Glc6S", "result": 0.71}, {"measurement": "glycan array binding signal (z-score)", "setting": "Gal3S(b1-4)GlcNAc", "result": 0.432}, {"measurement": "glycan array binding signal (z-score)", "setting": "[5]", "result": 0.004}, {"measurement": "glycan array binding signal (z-score)", "setting": "[6]", "result": -0.401}, {"measurement": "glycan array binding signal (z-score)", "setting": "[7]", "result": -0.149}, {"measurement": "glycan array binding signal (z-score)", "setting": "Gal3S4S(b1-4)GlcNAc", "result": 0.428}, {"measurement": "glycan array binding signal (z-score)", "setting": "Gal3S6S(b1-4)GlcNAc", "result": -0.27}, {"measurement": "glycan array binding signal (z-score)", "setting": "Gal3S6S(b1-4)GlcNAc6S", "result": 0.335}, {"measurement": "glycan array binding signal (z-score)", "setting": "Gal4S(b1-4)GlcNAc", "result": 0.065}, {"measurement": "glycan array binding signal (z-score)", "setting": "Gal4S6S(b1-4)GlcNAc", "result": -0.741}, {"measurement": "glycan array binding signal (z-score)", "setting": "Gal6P(b1-4)GlcNAc", "result": -0.37}, {"measurement": "glycan array binding signal (z-score)", "setting": "Gal6S(b1-3)GlcNAc", "result": 0.399}, {"measurement": "glycan array binding signal (z-score)", "setting": "Gal6S(b1-3)GlcNAc6S", "result": 0.325}, {"measurement": "glycan array binding signal (z-score)", "setting": "Gal6S(b1-4)Glc", "result": -0.989}, {"measurement": "glycan array binding signal (z-score)", "setting": "Gal6S(b1-4)Glc6S", "result": 0.316}, {"measurement": "glycan array binding signal (z-score)", "setting": "Gal6S(b1-4)GlcNAc", "result": -0.753}, {"measurement": "glycan array binding signal (z-score)", "setting": "Gal6S(b1-4)GlcNAc6S", "result": -0.574}, {"measurement": "glycan array binding signal (z-score)", "setting": "GalNAc(a1-3)Gal", "result": 0.126}, {"measurement": "glycan array binding signal (z-score)", "setting": "GalNAc(a1-3)GalNAc", "result": -0.513}, {"measurement": "glycan array binding signal (z-score)", "setting": "[8]", "result": -0.029}, {"measurement": "glycan array binding signal (z-score)", "setting": "[9]", "result": -0.912}, {"measurement": "glycan array binding signal (z-score)", "setting": "GalNAc(b1-3)Gal", "result": -0.667}, {"measurement": "glycan array binding signal (z-score)", "setting": "[10]", "result": -0.278}, {"measurement": "glycan array binding signal (z-score)", "setting": "[11]", "result": -0.205}, {"measurement": "glycan array binding signal (z-score)", "setting": "[12]", "result": -0.495}, {"measurement": "glycan array binding signal (z-score)", "setting": "GalNAc(b1-3)GalNAc", "result": -0.7}, {"measurement": "glycan array binding signal (z-score)", "setting": "GalNAc(b1-3)GlcNAc", "result": 0.267}, {"measurement": "glycan array binding signal (z-score)", "setting": "GalNAc(b1-4)Gal(b1-4)Glc", "result": 0.518}, {"measurement": "glycan array binding signal (z-score)", "setting": "GalNAc(b1-4)GlcNAc", "result": -0.824}]}
